Experimental data from paper PMC4429112, “Characterization of a Highly pH Stable Chi-Class Glutathione S-Transferase from Synechocystis PCC 6803” (PLoS ONE, 2015).
No constants are given. Whether binding was seen depends on the method and setting. Some entries that bind do so weakly or less than the wild type.

Molecular target: Glutathione S-transferase sll0067 from Synechocystis PCC 6803 (Synechocystis PCC 6803) (UniProt Q55139)
Assay: SEC; Superdex 200 10/300 GL at pH 3, 25°C; protein incubated in CGH buffer; both purified

B1: Glutathione S-transferase sll0067 from Synechocystis PCC 6803 (enzyme, UniProt Q55139 1-184, looked up)
chain: MIKLYGAPQSRASIIQWYLEELSLPYEFVNVNLKEGEHRQAPYLAINPFGKVPAIADGNFHLWESGAILLYLAEKASTIPADAQARALVNQWILFANSTLANGLFIEAVREKEMPRLLQSLEKILGRSPFILGEKFSVVDVAVGSILAYVPIMLKLNFDDYPAVAAYVQGLVQRPAFQASIGAR
notes: gene of 0.55 kb amplified from genomic DNA with primers from the ATG to the stop codon; subunit of about 20 kDa; Cloned at BamHI and HindIII sites of pQE30 and purified on Ni-NTA; also called GST sll0067; recombinant sll0067; source: E. coli M15, purified (Ni-NTA agarose)
binding: binds
